Test results from the supplement of paper PMC6078165.

Test system: HCC1143
Assay: relative JC-1 red fluorescence (viability) vs pre-drug, coculture with fibroblast (fraction); higher = more viable cancer cells
Method: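 JC-1 labelled TNBC cells cocultured 1:1 (1,500 cells each) with CellTrace Violet stained primary or stromal fibroblasts in 384-well plates in FluoroBrite medium, treated with one of 42 anticancer drugs at 0.1, 1, 10 or 100 uM. JC-1 red fluorescence (mitochondrial integrity in cancer cells only) was read by plate reader every 8 h for 72 h. Values are normalised to each well's pre-drug value. The stock of one drug was tenfold lower, so its dose labels may be too high.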

CN(Cc1cnc2nc(N)nc(N)c2n1)c1ccc(C(=O)N[C@@H](CCC(=O)O)C(=O)O)cc1 [Methotrexate]
relative JC-1 red fluorescence
Details | 8 h | 16 h | 24 h | 32 h | 40 h | 48 h | 56 h | 64 h | 72 h
0.1 µM, coculture fibroblast: C12385 | 0.855 | 0.754 | 0.698 | 0.625 | 0.565 | 0.521 | 0.48 | 0.447 | 0.433
0.1 µM, coculture fibroblast: H6013 | 0.742 | 0.618 | 0.59 | 0.573 | 0.5 | 0.507 | 0.477 | 0.467 | 0.434
0.1 µM, coculture fibroblast: H6019 | 0.786 | 0.708 | 0.671 | 0.605 | 0.563 | 0.54 | 0.495 | 0.461 | 0.43
0.1 µM, coculture fibroblast: H6076 | 0.811 | 0.78 | 0.715 | 0.647 | 0.608 | 0.595 | 0.567 | 0.545 | 0.541
0.1 µM, coculture fibroblast: H6231 | 0.821 | 0.858 | 0.753 | 0.594 | 0.632 | 0.585 | 0.542 | 0.494 | 0.457
0.1 µM, coculture fibroblast: HADF | 0.728 | 0.64578 | 0.627 | 0.6436 | 0.548 | 0.532 | 0.493 | 0.47 | 0.455
0.1 µM, coculture fibroblast: HCFa | 0.8096 | 0.686 | 0.653 | 0.64733 | 0.539 | 0.513 | 0.459 | 0.423 | 0.393
0.1 µM, coculture fibroblast: HCPF | 0.7977 | 0.8087 | 0.73 | 0.58354 | 0.624 | 0.57326 | 0.5329 | 0.493 | 0.462
0.1 µM, coculture fibroblast: HHSteC | 0.863 | 0.786 | 0.752 | 0.712 | 0.647 | 0.613 | 0.573 | 0.542 | 0.492
0.1 µM, coculture fibroblast: HMF | 0.8137 | 0.834 | 0.754 | 0.6281 | 0.651 | 0.608 | 0.5572 | 0.51 | 0.475
0.1 µM, coculture fibroblast: HPFa | 0.921 | 0.817 | 0.763 | 0.667 | 0.602 | 0.562 | 0.51891 | 0.468 | 0.437
0.1 µM, coculture fibroblast: HUF | 0.8599 | 0.753 | 0.701 | 0.6324 | 0.5699 | 0.538 | 0.484 | 0.449 | 0.425
0.1 µM, coculture fibroblast: Hs5 | 0.863 | 0.8869 | 0.8193 | 0.7639 | 0.71737 | 0.685 | 0.652 | 0.616 | 0.612
0.1 µM, coculture fibroblast: Hs27A | 0.78 | 0.721 | 0.723 | 0.755 | 0.703 | 0.738 | 0.706 | 0.708 | 0.646
0.1 µM, coculture fibroblast: Hs343T | 0.824 | 0.845 | 0.773 | 0.663 | 0.674 | 0.627 | 0.576 | 0.541 | 0.498
0.1 µM, coculture fibroblast: WS1 | 0.818 | 0.735 | 0.687 | 0.602 | 0.543 | 0.497 | 0.456 | 0.425 | 0.42
1 µM, coculture fibroblast: C12385 | 0.84 | 0.7234 | 0.6734 | 0.609 | 0.5409 | 0.493 | 0.455 | 0.423 | 0.41
1 µM, coculture fibroblast: H6013 | 0.75314 | 0.6259 | 0.588 | 0.568 | 0.505 | 0.505 | 0.474 | 0.474 | 0.441
1 µM, coculture fibroblast: H6019 | 0.7604 | 0.666 | 0.628 | 0.571 | 0.527 | 0.506 | 0.463 | 0.43 | 0.403
1 µM, coculture fibroblast: H6076 | 0.774 | 0.771 | 0.732 | 0.679 | 0.638 | 0.61 | 0.582 | 0.558 | 0.563
1 µM, coculture fibroblast: H6231 | 0.812 | 0.821 | 0.708 | 0.571 | 0.58 | 0.532 | 0.487 | 0.444 | 0.417
1 µM, coculture fibroblast: HADF | 0.769 | 0.689 | 0.676 | 0.682 | 0.607 | 0.599 | 0.583 | 0.564 | 0.526
1 µM, coculture fibroblast: HCFa | 0.759 | 0.666 | 0.6217 | 0.601 | 0.509 | 0.475 | 0.424 | 0.387 | 0.346
1 µM, coculture fibroblast: HCPF | 0.819 | 0.754 | 0.7049 | 0.66 | 0.621 | 0.59 | 0.558 | 0.531 | 0.526
1 µM, coculture fibroblast: HHSteC | 0.861 | 0.766 | 0.73 | 0.683 | 0.603 | 0.573 | 0.516 | 0.491 | 0.435
1 µM, coculture fibroblast: HMF | 0.809 | 0.785 | 0.71 | 0.614 | 0.607 | 0.567 | 0.52 | 0.491 | 0.474
1 µM, coculture fibroblast: HPFa | 0.924 | 0.796 | 0.7441 | 0.6462 | 0.585 | 0.551 | 0.4967 | 0.458 | 0.424
1 µM, coculture fibroblast: HUF | 0.872 | 0.763 | 0.71 | 0.637 | 0.578 | 0.538 | 0.481 | 0.448 | 0.411
1 µM, coculture fibroblast: Hs5 | 0.8751 | 0.901 | 0.8532 | 0.788 | 0.749 | 0.709 | 0.672 | 0.646 | 0.629
1 µM, coculture fibroblast: Hs27A | 0.713 | 0.62243 | 0.584 | 0.602 | 0.502 | 0.514 | 0.483 | 0.481 | 0.442
1 µM, coculture fibroblast: Hs343T | 0.791 | 0.787 | 0.715 | 0.624 | 0.6 | 0.555 | 0.504 | 0.48027 | 0.4492
1 µM, coculture fibroblast: WS1 | 0.876 | 0.795 | 0.774 | 0.724 | 0.685 | 0.641 | 0.592 | 0.558 | 0.536

The reference is the same well before dosing, and untreated signal decays as well.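 Fibroblast labels name human fibroblasts: mostly primary ones from tissues such as uterus (C12385, HUF), lung (H6013), bone (Hs27A), adrenal (HADF) and skin (WS1), plus mammary HMF and breast cancer-associated Hs343T. The cancer cells are basal-like or mesenchymal-like triple-negative breast cancer lines. The paper calls a changed response a hit when it shifts by more than 3x the replicate standard deviation. The tissue of the other fibroblasts is not given here.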
